Results on two substances are retold here after publication PMC13390769.

By UniProt entry, the sequences of proteins in these tests, tags left out. Where a name states a change or a piece, a line headed by the entry shows the natural chain unless it says otherwise. Chains listed by the source or under a name are the forms on record and can include a tag or linker.
Capicua short isoform (CIC-S), mouse, endogenous (Q924A2-2, form named): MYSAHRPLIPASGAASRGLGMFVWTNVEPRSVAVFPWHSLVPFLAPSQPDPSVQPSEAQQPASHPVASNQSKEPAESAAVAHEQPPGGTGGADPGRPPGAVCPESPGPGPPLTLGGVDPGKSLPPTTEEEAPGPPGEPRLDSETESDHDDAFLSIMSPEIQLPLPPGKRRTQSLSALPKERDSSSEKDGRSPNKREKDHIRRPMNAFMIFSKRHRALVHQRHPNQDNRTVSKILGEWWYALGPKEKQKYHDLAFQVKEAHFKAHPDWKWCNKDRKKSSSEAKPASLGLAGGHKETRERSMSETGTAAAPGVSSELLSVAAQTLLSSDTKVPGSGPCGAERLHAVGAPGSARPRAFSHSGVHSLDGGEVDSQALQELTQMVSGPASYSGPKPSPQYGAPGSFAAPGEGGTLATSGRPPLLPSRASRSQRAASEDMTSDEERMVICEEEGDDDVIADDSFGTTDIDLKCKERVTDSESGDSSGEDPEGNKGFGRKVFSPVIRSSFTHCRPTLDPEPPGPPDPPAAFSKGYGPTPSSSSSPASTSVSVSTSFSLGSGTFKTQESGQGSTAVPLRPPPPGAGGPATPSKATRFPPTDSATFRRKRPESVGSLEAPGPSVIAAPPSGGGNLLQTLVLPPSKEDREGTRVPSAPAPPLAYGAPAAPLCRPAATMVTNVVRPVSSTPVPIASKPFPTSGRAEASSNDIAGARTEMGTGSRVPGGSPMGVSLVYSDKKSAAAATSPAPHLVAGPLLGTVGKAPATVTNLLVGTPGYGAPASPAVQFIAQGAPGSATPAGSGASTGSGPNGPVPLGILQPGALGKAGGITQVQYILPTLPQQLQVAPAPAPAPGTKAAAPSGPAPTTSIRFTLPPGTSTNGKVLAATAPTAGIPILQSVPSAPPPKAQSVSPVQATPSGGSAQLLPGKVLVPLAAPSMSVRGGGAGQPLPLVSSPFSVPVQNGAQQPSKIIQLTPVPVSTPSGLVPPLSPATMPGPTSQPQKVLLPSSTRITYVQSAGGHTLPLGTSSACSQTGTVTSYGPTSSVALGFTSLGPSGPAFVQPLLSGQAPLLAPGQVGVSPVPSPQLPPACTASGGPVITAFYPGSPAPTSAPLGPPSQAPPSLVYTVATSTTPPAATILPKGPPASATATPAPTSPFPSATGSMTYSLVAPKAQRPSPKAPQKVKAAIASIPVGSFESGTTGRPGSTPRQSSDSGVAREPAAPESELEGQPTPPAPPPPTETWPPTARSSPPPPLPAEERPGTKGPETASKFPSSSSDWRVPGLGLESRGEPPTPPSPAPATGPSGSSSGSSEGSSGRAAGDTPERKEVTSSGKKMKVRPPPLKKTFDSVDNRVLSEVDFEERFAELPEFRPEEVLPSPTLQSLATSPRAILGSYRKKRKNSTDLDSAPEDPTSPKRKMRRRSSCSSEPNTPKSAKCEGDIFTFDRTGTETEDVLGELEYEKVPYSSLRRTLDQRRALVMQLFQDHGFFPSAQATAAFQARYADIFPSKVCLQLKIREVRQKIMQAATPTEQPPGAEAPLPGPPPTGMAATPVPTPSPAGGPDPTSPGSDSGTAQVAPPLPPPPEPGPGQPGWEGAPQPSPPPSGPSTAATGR

No constants are given. Whether binding was seen depends on the method and setting. For some assays here: Binding seen in cells or lysates may run through a third protein. Some binding calls cover weakened binding; strength is not graded here.

In assay [1] the target is T1, Ataxin-1-like (ATXN1L), mouse, endogenous (mouse (endogenous in mouse brain tissue)) (UniProt P0C7T6).
T1 sequence: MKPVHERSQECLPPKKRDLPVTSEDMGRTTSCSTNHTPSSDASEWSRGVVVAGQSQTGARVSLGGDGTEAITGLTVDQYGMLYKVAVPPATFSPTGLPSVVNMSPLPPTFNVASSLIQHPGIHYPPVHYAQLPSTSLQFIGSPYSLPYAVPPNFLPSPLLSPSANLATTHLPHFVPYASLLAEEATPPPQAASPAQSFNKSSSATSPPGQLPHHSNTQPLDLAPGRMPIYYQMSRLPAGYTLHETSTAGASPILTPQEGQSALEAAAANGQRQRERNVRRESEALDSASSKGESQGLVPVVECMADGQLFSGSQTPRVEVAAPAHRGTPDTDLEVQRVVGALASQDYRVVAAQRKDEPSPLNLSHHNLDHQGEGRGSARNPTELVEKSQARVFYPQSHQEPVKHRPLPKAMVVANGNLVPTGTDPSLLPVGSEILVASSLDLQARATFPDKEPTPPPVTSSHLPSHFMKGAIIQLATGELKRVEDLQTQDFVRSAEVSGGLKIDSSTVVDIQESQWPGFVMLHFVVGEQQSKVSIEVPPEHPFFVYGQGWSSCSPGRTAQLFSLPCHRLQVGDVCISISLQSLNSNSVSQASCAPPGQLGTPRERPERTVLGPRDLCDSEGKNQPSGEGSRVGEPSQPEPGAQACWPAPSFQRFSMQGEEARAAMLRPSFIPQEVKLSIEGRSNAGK
Description: SEC; Superose 6 10/300 GL, 4°C, 50 mM Tris pH 8.0, 50 mM NaCl, 0.1% Triton X-100; cortex extracts of 2–3 month old WT, Cic-S-KO and Cic-L-KO mice; 1 mL fractions immunoblotted for CIC, ATXN1, ATXN1L. For orientation: In gel filtration, larger molecules generally elute earlier.

For assay [2], the target named is T1, Ataxin-1-like (ATXN1L), mouse, endogenous (mouse (endogenous in mouse brain tissue)). Description: co-IP; cortex lysate of 12 week old WT mice (NEMT buffer or 75 mM NaCl, 5 mM MgCl2, 50 mM Tris-HCl pH 8.0, 0.5% Triton X-100); IP with anti-ATXN1 (534) or anti-ATXN1L (881) on Protein G Dynabeads, 2–3 h at 4°C; blot for CIC.
Assay [3] shares this target. In words: SEC; Superose 6 10/300 GL, 4°C, 50 mM Tris pH 8.0, 50 mM NaCl, 0.1% Triton X-100; cerebellum extracts of 2–3 month old WT, Cic-S-KO and Cic-L-KO mice; 1 mL fractions immunoblotted for CIC, ATXN1, ATXN1L.

As for “Capicua long isoform (CIC-L), mouse, endogenous (from UniProt Q924A2-4 1-2510)”, the binding result in assay [1] and in assay [2] was “binds” in each case.
Take “Capicua short isoform (CIC-S), mouse, endogenous (from UniProt Q924A2-2 1-1604)”: the binding entry in assay [1], in assay [3] and in assay [2] was “binds” in each case.
